Data as given in publication PMC9311869.
No constants are given. Whether binding was seen depends on the method and setting. In cells and extracts the contact can be indirect. Some binding calls cover weakened binding; strength is not graded here. Each block holds one molecule with its values, some of them ahead of it.

Chains of the proteins cited; added tags and fusions are not shown.
UniProt P21796: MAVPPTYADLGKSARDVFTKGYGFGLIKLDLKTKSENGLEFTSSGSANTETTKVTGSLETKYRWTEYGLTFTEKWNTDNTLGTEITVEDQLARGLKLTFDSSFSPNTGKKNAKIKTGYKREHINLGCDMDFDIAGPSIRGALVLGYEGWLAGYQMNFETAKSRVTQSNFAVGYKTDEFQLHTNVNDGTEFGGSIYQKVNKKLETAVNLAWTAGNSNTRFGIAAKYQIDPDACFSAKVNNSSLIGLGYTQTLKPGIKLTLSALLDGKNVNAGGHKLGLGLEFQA

Legend:
[1] = target: T1, Mitochondrial fission factor (human (endogenous in dopaminergic neurons differentiated from SHEDs)) (UniProt Q9GZY8); assay: co-IP; IP with rabbit polyclonal anti-MFF antibody from lysate of untreated DNs (150 mM NaCl, 50 mM Tris-HCl pH 7.5, 1% CHAPS, 1 mM EDTA), overnight at 4 °C, protein A Mag Sepharose Xtra; Western blot
T1 sequence: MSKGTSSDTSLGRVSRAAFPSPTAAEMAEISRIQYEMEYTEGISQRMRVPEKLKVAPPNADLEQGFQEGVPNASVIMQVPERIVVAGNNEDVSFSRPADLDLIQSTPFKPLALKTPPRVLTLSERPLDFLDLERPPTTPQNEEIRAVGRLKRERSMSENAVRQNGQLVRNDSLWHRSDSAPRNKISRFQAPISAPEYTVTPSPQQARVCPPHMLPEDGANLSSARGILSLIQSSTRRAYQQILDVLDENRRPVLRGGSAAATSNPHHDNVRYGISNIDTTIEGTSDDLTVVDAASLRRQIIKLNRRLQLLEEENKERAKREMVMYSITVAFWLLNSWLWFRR

[2] = target: Voltage-dependent anion channel 1 (human (endogenous in dopaminergic neurons differentiated from SHEDs)) (UniProt P21796); assay: co-IP; IP with rabbit polyclonal anti-VDAC1 antibody from lysate of untreated DNs (150 mM NaCl, 50 mM Tris-HCl pH 7.5, 1% CHAPS, 1 mM EDTA), overnight at 4 °C, protein A Mag Sepharose Xtra; Western blot

binding [1]: binds
Molecule: Voltage-dependent anion channel 1 (from UniProt P21796 1-283)

binding [2]: binds
B1: Mitochondrial fission factor (protein, UniProt Q9GZY8 1-342)
chain: T1 sequence
